# Data reported in paper PMC7819943, “Rice protein-binding microarrays: a tool to detect cis-acting elements near promoter regions in rice”.
# Chains of the proteins cited; added tags and fusions are not shown.
# UniProt Q0JBA9, entry or part of it: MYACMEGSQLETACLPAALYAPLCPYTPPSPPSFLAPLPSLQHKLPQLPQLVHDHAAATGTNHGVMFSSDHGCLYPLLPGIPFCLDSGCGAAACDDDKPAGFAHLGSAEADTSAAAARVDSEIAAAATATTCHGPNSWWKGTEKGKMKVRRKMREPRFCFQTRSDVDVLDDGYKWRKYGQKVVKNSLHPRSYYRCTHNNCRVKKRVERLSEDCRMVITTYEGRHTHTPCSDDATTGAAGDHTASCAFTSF
# This is one part of the list.
# Target: OsWRKY34 (Oryza sativa, UniProt Q0JBA9 1-250)
# Test: protein-binding microarray (RPBM); PBS, 2% BSA, 51.3 ng/ul salmon testes DNA, 50 uM zinc acetate, 200 nM TF, 25 C, 1 h; high values mean tight binding
# Conditions: protein: recombinant; tags: N-terminal polyhistidine and DsRed monomer fusion (pET32a); label: CyDye5-dUTP incorporated in the synthesized complementary strand; 3' TTTTT single-stranded linker to array surface; dsDNA, one strand shown
# Summary of the method: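 The binding signal is fluorescence intensity per array feature (arbitrary units). Readings came from an Axon 4000B scanner after a washed, 2% BSA-blocked, double-stranded custom Agilent array had been incubated for 1 h at 25 °C with 200 nM protein and 50 µM zinc acetate. The protein was a Ni–NTA-purified transcription factor fused N-terminally to polyhistidine and DsRed, expressed in E. coli BL21-CodonPlus.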
row,Sequence,binding signal
1,GTCCTATCGCGTAGCCCACACTCCACCCTATCGCGCCTTCCGGAGTCACCTAGTGCAG,11500 fluorescence intensity (a.u.)
2,CTGCTTTCTACACTTGTTCCCTTTTGATTCAGCTTCTGTGCGGAGTCACCTAGTGCAG,9290 fluorescence intensity (a.u.)
3,GCTGCTGGTGGTGGTAGTAGGACTTGGGGCTCGTGTTGTGCGGAGTCACCTAGTGCAG,9720 fluorescence intensity (a.u.)
4,TCCCCACCAACTTGACCTCTACTCGTCACAGTGTCAAACTCGGAGTCACCTAGTGCAG,10200 fluorescence intensity (a.u.)
5,GTGTGGTGTGTGCTCCTATTTGCTCGTGATCAAGTATAACCGGAGTCACCTAGTGCAG,8500 fluorescence intensity (a.u.)
6,CTCTATGCTCGACTGAGCGGCCATGTTTTTCTCCGTTTCACGGAGTCACCTAGTGCAG,10600 fluorescence intensity (a.u.)
7,GGTTCTGTTCTATATACTCCGACACCATACTGATTAGTCTCGGAGTCACCTAGTGCAG,10900 fluorescence intensity (a.u.)
8,TAGTATAGAGGAGGGAGCGGGCGGGTGATTACAAGACGGACGGAGTCACCTAGTGCAG,8900 fluorescence intensity (a.u.)
9,GCATGTTTCTTCTCTTCTTCCTTTGCTCGGAAGTCTGTCTCGGAGTCACCTAGTGCAG,8200 fluorescence intensity (a.u.)
10,CGGTCGAGCCAGTGAACTCATCACGTTGACCCGGTCGCCACGGAGTCACCTAGTGCAG,8480 fluorescence intensity (a.u.)
11,ATAGGGACTACTCCTATATATGATTGTTGTTACTGTACTTCGGAGTCACCTAGTGCAG,8960 fluorescence intensity (a.u.)
12,AATTTCGCTATACCACAACGTGCACAATTGATACATTTCCCGGAGTCACCTAGTGCAG,10500 fluorescence intensity (a.u.)
13,GCTACTACTGCTGCTGCTGCTACTTATCCACCGCTTTTTTCGGAGTCACCTAGTGCAG,13600 fluorescence intensity (a.u.)
14,GAGAGAGTTACCAACTCATTTTTCACGTGCACGATTTTCACGGAGTCACCTAGTGCAG,8460 fluorescence intensity (a.u.)
15,CCACGCGCCCATCCACTCACCGGTCCATGCACCCGGTCTACGGAGTCACCTAGTGCAG,8740 fluorescence intensity (a.u.)
16,TCACTAAAGGCTAAAATCTAACATGTTGTAGTCTATTTATCGGAGTCACCTAGTGCAG,8070 fluorescence intensity (a.u.)
17,ATCATATTCCTACGTTTTCCTGTTGGTGCGGTTCAAAAAACGGAGTCACCTAGTGCAG,9250 fluorescence intensity (a.u.)
18,CGATCTGGCCACGGCACTCCGCTTCTCTCTTCTCCTCTACCGGAGTCACCTAGTGCAG,13700 fluorescence intensity (a.u.)
19,CTGCGCTGCCCGATTTCCATCCATCCCGCTTCCGCCTCCGCGGAGTCACCTAGTGCAG,10600 fluorescence intensity (a.u.)
20,ACCAGCTTTCTTTCTCGTGCTTTCCTCTTCTTCTTTTTTTCGGAGTCACCTAGTGCAG,10900 fluorescence intensity (a.u.)
21,GTAATCGCAGAGGCAGGTCATCGTCGGATTTGATCTTGACCGGAGTCACCTAGTGCAG,14400 fluorescence intensity (a.u.)

# Taken from the listing (three entries):
row,Sequence,binding signal
2,CTGCTTTCTACACTTGTTCCCTTTTGATTCAGCTTCTGTGCGGAGTCACCTAGTGCAG,9290 fluorescence intensity (a.u.)
3,GCTGCTGGTGGTGGTAGTAGGACTTGGGGCTCGTGTTGTGCGGAGTCACCTAGTGCAG,9720 fluorescence intensity (a.u.)
4,TCCCCACCAACTTGACCTCTACTCGTCACAGTGTCAAACTCGGAGTCACCTAGTGCAG,10200 fluorescence intensity (a.u.)

# Further results follow:

row,Sequence,binding signal
1,CTCCTAGGTGGCGTCGCCTTAGGTAGTGGTGGATGGGGAGCGGAGTCACCTAGTGCAG,10000 fluorescence intensity (a.u.)
2,AAGATAAATCATTCCACTACTGCTCTTCTCATATCTAACCCGGAGTCACCTAGTGCAG,9700 fluorescence intensity (a.u.)
3,ATGACTTTATAACATTTTTGCATCATCACACTTCATATAACGGAGTCACCTAGTGCAG,11100 fluorescence intensity (a.u.)
4,CACCACACGTACGCTACCTTATCAGATCCGAATCAGAATACGGAGTCACCTAGTGCAG,9980 fluorescence intensity (a.u.)
5,GCCCACGCACGGCTGGCCCTGCTTCTCACTCCTTTCTCTTCGGAGTCACCTAGTGCAG,9890 fluorescence intensity (a.u.)
6,CAGAGTCCACAGCAATGGTTTTTGGAGAGTTGTTCAGCCGCGGAGTCACCTAGTGCAG,8370 fluorescence intensity (a.u.)
7,ATCTTTGCAAAGTACTAGAGCATATTTCTGTCGTCAAGCACGGAGTCACCTAGTGCAG,8660 fluorescence intensity (a.u.)
8,CTCTTTCACTCGCTCACCTGCTCCATGCTCGTCCAGTACTCGGAGTCACCTAGTGCAG,9490 fluorescence intensity (a.u.)
9,CTATGGGCAAACTAATAGCTTCATCTTTTCGCTTATACTTCGGAGTCACCTAGTGCAG,9550 fluorescence intensity (a.u.)
10,CATTTTGTTTCTACTTTGAGTAATGTTGCTTCTGTTTATACGGAGTCACCTAGTGCAG,11100 fluorescence intensity (a.u.)
11,TTCCTGTGTTTTGTAATCCTCTGTTTTACAATTGTATTCCCGGAGTCACCTAGTGCAG,9820 fluorescence intensity (a.u.)
12,CATTTAATTATACGCCTCGCTCACTAGCTTAACTGCTAATCGGAGTCACCTAGTGCAG,8700 fluorescence intensity (a.u.)
13,CACCCGCCGCTGCTCTGCCTACTCGCCGGCCACCTCCTCACGGAGTCACCTAGTGCAG,15500 fluorescence intensity (a.u.)
14,TTTTCTTTTGTACTCTTCTCAATTGTTTATTACGACTGTTCGGAGTCACCTAGTGCAG,9860 fluorescence intensity (a.u.)
15,GTGTGTTCGTTTCTTTCTGGCCGTTGGATCGCGGATGGGCCGGAGTCACCTAGTGCAG,8700 fluorescence intensity (a.u.)
16,TAAAGCTGCTTGGTTTTGCTTCTGTAATCTGTACCACGTTCGGAGTCACCTAGTGCAG,9370 fluorescence intensity (a.u.)
17,TGTTCTGTGTTCGTGTTTGGGATTGGGCGCGGCGTGTGCCCGGAGTCACCTAGTGCAG,8470 fluorescence intensity (a.u.)
18,CTCTGTGTTCTTGGTGTTCCCTGTGCTGTTCTTGGGCAAGCGGAGTCACCTAGTGCAG,9330 fluorescence intensity (a.u.)
19,ATTGTTTTTGGTCATTGATCATCACTCTGGTTAACTGGTCCGGAGTCACCTAGTGCAG,8730 fluorescence intensity (a.u.)
20,TTCTAACTTTTCCGTCACATAAAATGTTTGGACACATATACGGAGTCACCTAGTGCAG,8460 fluorescence intensity (a.u.)
21,GCCCTACGCCGCCAAGCCCATGTTGCCCCTATGCCACCTGCGGAGTCACCTAGTGCAG,8350 fluorescence intensity (a.u.)
